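A cell-based FRET test of anthrax lethal toxin entry, tracked through the 460 nm emission signal; the cell line is not named here.
Each compound was tested as a concentration series from about 0.0005 to 40 µM.
The number is the fitted AC50 of the 460 nm signal alone; lower values mean a more potent effect. A falling signal goes with compounds filed as inhibitors or cytotoxic, a rising one with activators or fluorescent compounds (inferred from the filed classes).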

Values are in µM.
Common to all entries: measured here: 460 nm channel.
Part of the compounds only, not a random draw; the main read-out is not listed here.
Potencies fitted to partial, single-point or poorly fitting curves are rough.
The first word of each remark tells which way the curve ran; it can be opposite to the aim of the assay.

compound | AC50 (µM) | curve as filed
O=C(CCNS(=O)(=O)c1ccc(Cl)cc1)N1CCC2(O)CCCCC2C1 (configuration not stated) | 3.981 | rising, full curve, poor fit
O=C(c1cccc(F)c1)N1CCC2(CC1)CCN(c1ccncc1)CC2 | 25.12 | falling, single point
COC(=O)C1CC1C(NC(=O)[C@@H]1CCCN1)c1ccccc1 (some centres not stated) | 0.02512 | falling, full curve, poor fit
CC(=O)Nc1cccc(NC(=O)c2cc(C)on2)c1 | 2.512 | rising, single point
CN1CCN(C(=O)c2ccc3c(c2)NC(=O)C(N2CCOCC2)S3)CC1 (configuration not stated) | 5.012 | rising, single point
CNc1ncnc2ccc(-c3ccccc3OC)cc12 | 0.01995 | falling, full curve, poor fit
O=C(CCN1Cc2ccccc2C1)c1ccc2c(c1)OCCO2 | 19.95 | falling, single point
Cc1ccc2c(c1)N[C@H](c1ccc(C(=O)O)cc1)c1cccn1-2 | 0.1585 | falling, full curve
Cc1ccc(C)c(C(=O)N(Cc2nc(-c3ccc(Cl)cc3)no2)C(C)C)c1 | 10 | falling, partial curve
C/C=C/CSc1nc2c(c(=O)[nH]c(=O)n2C)n1Cc1ccc(C)cc1 | 15.85 | falling, single point
CCCCN(CC)CCNC(=O)c1cc2c(=O)n(C)c3ccccc3c2n1C | 5.012 | falling, full curve
O=c1[nH]c(=O)n(-c2cccc(Cl)c2)c(O)c1C=NCCCN1CCOCC1 | 6.31 | falling, partial curve, poor fit
CN(c1ccccc1)c1nc(N2CCCC2)nc(-n2ccnc2)n1 | 31.62 | falling, single point
N#Cc1ccc(CN2CC[C@@]3(CCCN(C(=O)c4cccc(F)c4)C3)C2)cc1 | 15.85 | rising, partial curve
O=C(CCCN1CCC2(CC1)C(=O)NCN2c1ccccc1)c1ccc(F)cc1 | 31.62 | falling, single point
COc1cc(S(=O)(=O)N2CCN(c3ccccc3)CC2)ccc1Cl | 5.012 | falling, full curve, poor fit
COc1cc(S(=O)(=O)N2CCN(c3ccccc3F)CC2)ccc1Cl | 10 | falling, partial curve
CCOC(=O)N1CCC(N2Cc3cccc(C(=O)NCc4ccccn4)c3C2=O)CC1 | 7.943 | rising, partial curve
COCC(=O)N1CCC2(CC1)CN(C(=O)Nc1cccc(C#N)c1)C2 | 5.012 | rising, partial curve
Cc1cccc(CNc2ncnc3ccc(-c4cccnc4)cc23)c1 | 15.85 | falling, single point
CCOC(=O)c1sc2nc(CC(=O)OC)nc(NCCN3CCOCC3)c2c1C | 10 | rising, single point
O=S(=O)(NCc1ccccn1)c1ccc2c(c1)OCCO2 | 5.012 | rising, partial curve, poor fit
CCN1C(=O)/C(=C/N2CC(C)CC(C)C2)SC1=S (configuration not stated) | 0.3981 | falling, partial curve
CCOC(=O)CSc1nc(N)c(C#N)c(-c2ccc(OCC)cc2)c1C#N | 3.981 | falling, partial curve
Oc1ccc(Cl)cc1-c1cc(-c2ccccc2)n[nH]1 | 7.943 | falling, partial curve
CCCCCCCC[N+](CCCCCCCC)(CCCCCCCC)CCCCCCCC | 12.59 | falling, full curve
CC1=C(C(=O)OC2CCCCCCC2)C(c2ccc(O)cc2)NC(=O)N1 (configuration not stated) | 31.62 | falling, single point
COC(=O)[C@@H]1CC[C@H](C)[C@@H](c2ccc(C)cc2)N1C(=O)c1ccc(/C=N\O[C@@H](C)CN2CCCc3nc(C)c(C)cc32)cc1 | 1.995 | rising, partial curve
CCCCOC(=O)c1ccccc1C(=O)OCCCC | 0.1995 | falling, full curve, poor fit
CN(C)c1ccc(N=O)cc1 | 7.943 | falling, full curve
CCCC/C=C/C(NC(=O)c1cccs1)c1ccccc1 (configuration not stated) | 0.5012 | falling, partial curve, poor fit
Cc1cccc(N2CCN(C(=O)c3ccncc3)CC2)c1C | 0.1995 | falling, full curve
COc1ccc(N2CSC3=C(C#N)C(c4cc(OC)ccc4OC)CC(=O)N3C2)c(OC)c1 (configuration not stated) | 6.31 | falling, partial curve
Cc1c(C(=O)OCC2CCCO2)[nH]c2c1C(=O)CC(c1ccco1)C2 (configuration not stated) | 0.01 | falling, full curve, poor fit
C[C@@H](C(=O)Nc1ccc2ccccc2c1)[C@@H]1C[C@@]1(C)[C@@H](NS(=O)(=O)c1ccc(-c2ccccc2)cc1)c1ccccc1 | 10 | falling, partial curve
CCOc1ncccc1C(=O)Nc1ccc(-c2cn3ccsc3n2)cc1 | 0.1259 | falling, full curve, poor fit

4 of the entries, repeated:

| compound | AC50 (µM) | curve as filed |
|---|---|---|
| `CN(C)c1ccc(N=O)cc1` | 7.943 | falling, full curve |
| `COCC(=O)N1CCC2(CC1)CN(C(=O)Nc1cccc(C#N)c1)C2` | 5.012 | rising, partial curve |
| `CCOC(=O)N1CCC(N2Cc3cccc(C(=O)NCc4ccccn4)c3C2=O)CC1` | 7.943 | rising, partial curve |
| `O=S(=O)(NCc1ccccn1)c1ccc2c(c1)OCCO2` | 5.012 | rising, partial curve, poor fit |

Source: PubChem BioAssay AID912 (NCATS, 2007).